Measured values reported in article PMC4737751.
No constants are given. Whether binding was seen depends on the method and setting. For some of these results: In cells and extracts the contact can be indirect. Some binding calls cover weakened binding; strength is not graded here. For some of these results: Where a sequence is shown, tags or fusion partners need not be part of it.

The chains behind the UniProt entries cited, without tags or fusion partners.
UniProt P87112: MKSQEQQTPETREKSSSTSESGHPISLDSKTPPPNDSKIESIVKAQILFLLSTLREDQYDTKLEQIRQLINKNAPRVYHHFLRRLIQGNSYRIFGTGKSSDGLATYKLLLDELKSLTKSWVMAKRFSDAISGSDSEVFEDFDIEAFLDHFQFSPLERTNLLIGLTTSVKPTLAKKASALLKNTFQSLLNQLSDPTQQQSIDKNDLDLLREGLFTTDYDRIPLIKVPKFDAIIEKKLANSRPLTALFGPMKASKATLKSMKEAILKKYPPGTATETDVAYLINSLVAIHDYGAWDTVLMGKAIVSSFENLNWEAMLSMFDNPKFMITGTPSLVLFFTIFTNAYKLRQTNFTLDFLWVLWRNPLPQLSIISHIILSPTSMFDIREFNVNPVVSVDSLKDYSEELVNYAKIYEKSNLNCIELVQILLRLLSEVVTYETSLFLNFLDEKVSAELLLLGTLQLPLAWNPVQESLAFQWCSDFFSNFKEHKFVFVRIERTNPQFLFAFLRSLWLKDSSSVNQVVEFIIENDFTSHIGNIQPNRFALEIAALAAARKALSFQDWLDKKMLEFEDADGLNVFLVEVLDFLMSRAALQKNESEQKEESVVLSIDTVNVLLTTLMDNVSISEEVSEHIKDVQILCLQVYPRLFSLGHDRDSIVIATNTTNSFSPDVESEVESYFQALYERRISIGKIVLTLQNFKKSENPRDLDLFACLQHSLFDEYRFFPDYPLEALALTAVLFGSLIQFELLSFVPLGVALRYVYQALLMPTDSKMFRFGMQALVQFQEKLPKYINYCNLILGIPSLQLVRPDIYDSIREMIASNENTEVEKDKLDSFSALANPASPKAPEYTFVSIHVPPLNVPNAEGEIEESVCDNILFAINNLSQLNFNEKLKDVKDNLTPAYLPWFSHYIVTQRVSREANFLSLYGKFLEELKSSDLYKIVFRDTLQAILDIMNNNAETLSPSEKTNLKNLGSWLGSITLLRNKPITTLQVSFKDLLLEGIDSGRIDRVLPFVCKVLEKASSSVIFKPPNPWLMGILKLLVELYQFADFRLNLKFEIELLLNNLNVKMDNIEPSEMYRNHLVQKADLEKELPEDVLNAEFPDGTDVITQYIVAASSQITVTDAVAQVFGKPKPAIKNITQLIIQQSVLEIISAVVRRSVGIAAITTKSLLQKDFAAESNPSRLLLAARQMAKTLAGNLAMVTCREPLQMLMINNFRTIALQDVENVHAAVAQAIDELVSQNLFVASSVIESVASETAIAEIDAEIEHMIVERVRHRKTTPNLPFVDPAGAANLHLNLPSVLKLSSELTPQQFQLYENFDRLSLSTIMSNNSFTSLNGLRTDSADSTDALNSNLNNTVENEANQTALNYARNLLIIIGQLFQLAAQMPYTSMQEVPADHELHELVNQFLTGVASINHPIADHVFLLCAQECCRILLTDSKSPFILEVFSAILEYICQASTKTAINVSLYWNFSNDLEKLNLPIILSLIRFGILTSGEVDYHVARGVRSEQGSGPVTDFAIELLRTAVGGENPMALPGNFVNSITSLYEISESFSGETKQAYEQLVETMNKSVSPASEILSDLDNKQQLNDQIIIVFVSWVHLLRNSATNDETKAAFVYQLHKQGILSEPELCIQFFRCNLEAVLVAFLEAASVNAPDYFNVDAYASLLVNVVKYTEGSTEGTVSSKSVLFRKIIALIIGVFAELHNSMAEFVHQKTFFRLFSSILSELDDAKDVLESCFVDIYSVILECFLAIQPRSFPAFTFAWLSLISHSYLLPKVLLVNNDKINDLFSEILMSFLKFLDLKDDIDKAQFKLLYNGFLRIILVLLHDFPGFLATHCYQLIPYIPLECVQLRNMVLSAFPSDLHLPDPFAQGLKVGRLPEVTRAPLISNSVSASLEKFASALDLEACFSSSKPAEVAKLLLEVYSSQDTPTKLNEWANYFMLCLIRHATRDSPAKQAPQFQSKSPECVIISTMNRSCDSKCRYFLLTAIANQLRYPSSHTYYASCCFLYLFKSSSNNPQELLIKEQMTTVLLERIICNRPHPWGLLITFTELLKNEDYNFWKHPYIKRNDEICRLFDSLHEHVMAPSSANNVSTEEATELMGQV

How the values were obtained:
[1] = target: T1, Not2 subunit of the S. pombe CCR4-NOT complex, fused to Protein A with a TEV protease cleavage site (S. pombe) (UniProt P87240); experiment: co-sedimentation; complexes from GFP-fusion strains purified on IgG beads through Protein A on Not2, TEV eluate incubated with anti-GFP antibody or Fab (30 min, 4 °C), glycerol gradient, fractions analysed by SDS-PAGE
T1 sequence: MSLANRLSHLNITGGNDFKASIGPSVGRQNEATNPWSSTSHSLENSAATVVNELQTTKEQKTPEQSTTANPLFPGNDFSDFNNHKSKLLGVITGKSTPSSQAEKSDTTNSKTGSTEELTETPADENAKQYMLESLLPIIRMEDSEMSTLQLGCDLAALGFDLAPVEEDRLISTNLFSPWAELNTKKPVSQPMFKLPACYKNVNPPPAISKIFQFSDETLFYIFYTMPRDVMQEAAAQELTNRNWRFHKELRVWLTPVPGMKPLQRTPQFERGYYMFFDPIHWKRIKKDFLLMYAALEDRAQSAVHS

[2] = target: T2, S. cerevisiae Not2 (S. cerevisiae) (UniProt P06100); experiment: negative staining EM 3D reconstruction; purified S. cerevisiae Not2-Not5 heterodimer, 2% uranyl acetate, 20,055 particles, 16 Å resolution; both purified
T2 sequence: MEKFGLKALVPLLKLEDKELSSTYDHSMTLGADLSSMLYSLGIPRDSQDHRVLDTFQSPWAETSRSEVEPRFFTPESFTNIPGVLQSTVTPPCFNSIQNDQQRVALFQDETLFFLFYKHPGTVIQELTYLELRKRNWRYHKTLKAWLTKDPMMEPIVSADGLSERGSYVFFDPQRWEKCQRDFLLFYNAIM

[3] = target: T2, S. cerevisiae Not2 (S. cerevisiae); experiment: SEC; S. cerevisiae Not2 and Not5 coexpressed in E. coli and co-purified; complex formation confirmed by size-exclusion chromatography; both purified

| Molecule | binding [1] | binding [2] | binding [3] |
| --- | --- | --- | --- |
| Ccr4 of S. pombe with GFP fused to its C terminus (protein, UniProt O74874 1-690) MFNPRYTQGTIYPGAHPGLLTPDHQHAAILSVQNSPALENSNISEHWKQQIALATQSRSFSSPHQRAHNAAALARSGGPGFSMNYNARTGAFTGGPNAAGLSSLGGKYNTSSTTTTLTTSTTLNTSSGTTLNSTSKTTTSSVAVDDQKSKSDSKKERRDWTCLDLGGIGLRNVSTDLFKFSFLTELYINHNNLTRLPPEIGKLKNLVILDASGNSIKTIPPELGLLTELREVLLFDNMISVIPAELGTLFQLKILGIEGNPLQDVYKNQIMESGTAGLIAALRDGCPVGPPPPERGWEKLVSDDDDDVNDNVSTSVRDLTAADSNKPSTTSKNLKFTIMSYNVLCERYATSTLYGYTPSWALSWSYRKDLIMQELGGYNADIICLQEVDVENYDTFFAPQMSLKGYKGVHFPKSRVRTMNEVERRIVDGCATFFKTSKYVMHEKMVIEYNQAPSLRRQDIKLTSNMYNRVMTKDNISVITLLENKENGSRLIVANCHIHWDPQFRDVKVIQVAMLMDEIAQVATKFRNMPSKIPSDQLKDERPTYPEYLKIPILICGDFNSVQGSGVYDFLSSGSISQNHEDFMNNDYGEYTVNGRSHAFNLKSAYGESEALSFTNYTPGFKGAIDHIWYTGNSLEVTGLLKGVDKDYLSGVVGFPNAHFPSDHICLLAEFKVKQEKTPLPSSKFNNDKK | binds |  |  |
| Caf1 of S. pombe with GFP fused to its C terminus (protein, UniProt O74856 1-335) MTAMNSNFSYPALGVDGISSQISPIRDVWSTNLQQEMNLIMSLIERYPVVSMDTEFPGVVARPLGVFKSSDDYHYQTLRANVDSLKIIQIGLALSDEEGNAPVEACTWQFNFTFNLQDDMYAPESIELLTKSGIDFKKHQEVGIEPADFAELLIGSGLVLQEEVTWITFHSGYDFAYLLKAMTQIPLPAEYEEFYKILCIYFPKNYDIKYIMKSVLNNSKGLQDIADDLQIHRIGPQHQAGSDALLTARIFFEIRSRYFDGSIDSRMLNQLYGLGSTGSVLWHNNSSTPQIQFRDLPGAHPSPTPSNAGIPTTLTNTSSAPNFANSTFRFPPRVV | binds |  |  |
| Caf40 of S. pombe with GFP fused to its C terminus (protein, UniProt Q92368 1-283) MENLESPNYEPALVYEWIIQLVSGTSREQALVELSRKREQYEDLALILWHSYGVMTALLQEIISVYPLLNPPTLTGPTSNRVCNALALLQCIASHPETRIHFLNAHITLFLYPFLNTLSKSKPFEYLRLTSLGVIGALVKNDSPEVINFLLSTEIIPLCLRIMENGSELSKTVAIFIVQKFLCDDVGLQYICQTYERFYAVASVLNNMVMQLVDSFAFRLLKHVIRCYLRLSDNPRAREALRHCLPEPLRDATFAQVLKDDHNTKKCLAQLLINLSDVAVVNQ | binds |  |  |

More lines, now with the values ahead:

| binding [1] | binding [2] | binding [3] | Molecule |
| --- | --- | --- | --- |
| binds |  |  | Not1 of S. pombe with GFP fused to its C terminus (from UniProt P87112 1-2100) |
|  | binds | binds | S. cerevisiae Not5 (protein, UniProt Q12514 1-560) MSQRKLQQDIDKLLKKVKEGIEDFDDIYEKFQSTDPSNSSHREKLESDLKREIKKLQKHRDQIKTWLSKEDVKDKQSVLMTNRRLIENGMERFKSVEKLMKTKQFSKEALTNPDIIKDPKELKKRDQVLFIHDCLDELQKQLEQYEAQENEEQTERHEFHIANLENILKKLQNNEMDPEPVEEFQDDIKYYVENNDDPDFIEYDTIYEDMGCEIQPSSSNNEAPKEGNNQTSLSSIRSSKKQERSPKKKAPQRDVSISDRATTPIAPGVESASQSISSTPTPVSTDTPLHTVKDDSIKFDNSTLGTPTTHVSMKKKESENDSEQQLNFPPDRTDEIRKTIQHDVETNAAFQNPLFNDELKYWLDSKRYLMQPLQEMSPKMVSQLESSLLNCPDSLDADSPCLYTKPLSLPHPTSIFFPNEPIRFVYPYDVPLNLTNNENDTDNKFGKDSKAKSKKDDDIYSRTSLARIFMKFDLDTLFFIFYHYQGSYEQFLAARELFKNRNWLFNKVDRCWYYKEIEKLPPGMGKSEEESWRYFDYKKSWLARRCGNDFVYNEEDFEKL |
| binds |  |  | Not3 of S. pombe with GFP fused to its C terminus (protein, UniProt O13870 1-640) MSARKLQVEIEKTFKKVTDGIAIFDEVYEKLSASNSVSQKEKLEGDLKTQIKKLQRLRDQIKTWASSNDIKDKKALLENRRLIEAKMEEFKAVEREMKIKAFSKEGLSIASKLDPKEKEKQDTIQWISNAVEELERQAELIEAEAESLKATFKRGKKDLSKLSHLSELESRIERHKWHQDKLELIMRRLENSQISPEAVNDIQEDIMYYVECSQSEDFAEDENLYDELNLDEASASYDAERSGRSSSSSHSPSPSASSSSSSENLLQDKAEAEEKVSADASVQDIAEKESLDADKELATNDQEDDEEENQAETQKDGAISNNENMQSEVQTTNPSASTSAVTNITKPTLIQNPSTPLSVSNSKVASPETPNATHTAPKVEMRYASAAAAAAAALAKESPSHHYIMQQVRPETPNSPRLNSTVIQSKWDSLGHTASPKMQTQPVRSVSQSSATTETNVKPTKEENADVPVSSPDYLKDLVNALNTSKEQHKGAIDKEKLTEALNISCVYVPDATDAAKPQYYIPKDPYPVPHYYPQQPLPLFDSSEMTELVDPDTLFYMFYYRPGTYQQYIAGQELKKQSWRFHKKYTTWFQRHEEPKMITDEFESGSYRYFDFEGDWVQRKKADFRFTYQYLEDDDDWTR |
